Source: article PMC5996148
The list shows a part of the results.

What was measured:
Assay in all cases: protein microarray (ProtoArray v5.0), streptavidin-Alexa Fluor 647
Conditions in all cases: 3'-biotin; 20 mM Tris (pH 7.5), 5 mM MgCl2, 100 mM KCl, 0.1% Tween-20, A/T-rich and random oligonucleotide blockers; temperature not stated; high values mean tight binding
FAM131C (human) = test system: FAM131C (human)
FAM136A (human) = test system: FAM136A (human)
FAM26A (human) = test system: FAM26A (human)
FAM3A (human) = test system: FAM3A (human)
FAM44B (human) = test system: FAM44B (human)
FAM80A (human) = test system: FAM80A (human)
FAM82C (human) = test system: FAM82C (human)
FAM9C (human) = test system: FAM9C (human)
FANCG (human) = test system: FANCG (human)
FANCI (human) = test system: FANCI (human)

GGGGACAGGGGTATGGGGAGGGG [G4-3 biotinylated (CtG)]
binding signal (FAM131C (human)): -0.325 z-score
binding signal (FAM136A (human)): -0.328 z-score
binding signal (FAM26A (human)): -0.329 z-score
binding signal (FAM3A (human)): -0.332 z-score
binding signal (FAM44B (human)): -0.349 z-score
binding signal (FAM80A (human)): -0.32 z-score
binding signal (FAM82C (human)): -0.325 z-score
binding signal (FAM9C (human)): -0.308 z-score
binding signal (FANCG (human)): -0.332 z-score
binding signal (FANCI (human)): -0.343 z-score
